Screening data, single-dose tests

Amino acid sequences for entries named in this document (tags omitted). Residues count along the entry.
UniProt P9WPC5, whole entry: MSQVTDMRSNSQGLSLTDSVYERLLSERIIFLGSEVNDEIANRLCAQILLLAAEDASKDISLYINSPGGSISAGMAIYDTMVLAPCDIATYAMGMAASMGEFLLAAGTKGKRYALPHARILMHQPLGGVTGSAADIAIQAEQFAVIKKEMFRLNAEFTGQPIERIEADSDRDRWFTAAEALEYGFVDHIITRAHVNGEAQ
UniProt P9WPC3, whole entry partner: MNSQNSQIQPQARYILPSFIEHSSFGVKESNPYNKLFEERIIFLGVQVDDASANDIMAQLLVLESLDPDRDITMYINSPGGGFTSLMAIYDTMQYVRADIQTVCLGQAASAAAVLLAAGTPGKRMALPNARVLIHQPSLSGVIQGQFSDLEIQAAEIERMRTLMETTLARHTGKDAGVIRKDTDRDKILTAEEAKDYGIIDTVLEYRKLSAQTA
UniProt A4I591, 1-473: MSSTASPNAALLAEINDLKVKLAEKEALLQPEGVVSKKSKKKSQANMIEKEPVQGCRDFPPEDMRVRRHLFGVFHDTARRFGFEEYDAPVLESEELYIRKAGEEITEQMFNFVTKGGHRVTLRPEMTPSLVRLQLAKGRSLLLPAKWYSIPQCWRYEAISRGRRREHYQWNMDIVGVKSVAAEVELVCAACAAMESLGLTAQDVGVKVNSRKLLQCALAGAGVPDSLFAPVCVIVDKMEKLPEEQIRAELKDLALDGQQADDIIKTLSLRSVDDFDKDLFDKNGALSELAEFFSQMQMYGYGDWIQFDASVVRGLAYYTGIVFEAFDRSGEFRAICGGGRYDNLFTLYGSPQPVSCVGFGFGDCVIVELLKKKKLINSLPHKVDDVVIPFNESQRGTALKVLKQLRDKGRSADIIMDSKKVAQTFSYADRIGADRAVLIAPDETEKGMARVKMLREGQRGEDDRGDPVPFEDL

ClpP1P2: 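ClpP1P2, Mycobacterium tuberculosis (UniProt P9WPC5 and UniProt P9WPC3). Protease assay of ClpP1P2, read by the AMC dye that it sets free. Concentration: 50 µM. Higher reads as stronger inhibition, judged from the few compounds that gave an IC50. Most other retested compounds had strongly negative values. About 69,000 compounds were tested under these conditions; 0.015% (about 10) showed 50% or more at least once.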
LiHisRS: 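Enzyme assay of histidyl-tRNA synthetase; the read-out is not stated. Target: Histidine-tRNA ligase, Leishmania infantum (UniProt A4I591). Compounds at 30 µM. Direction is inferred from retests: higher values go with stronger inhibition. The assay is labelled LdHisRS but filed under L. infantum. About 69,000 compounds were tested under these conditions; 0.6% (about 410) showed 50% or more at least once.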

Results are given as percent effect. The controls that fix the scale are not given in the record; negative values are as filed. This is an unselected part of the compounds tested.

With O=C(c1cc[nH]n1)N1CCOCC2(C1)CN(c1ccccc1)C(=O)CO2 (stereo unspecified) the screen gave ClpP1P2: -12.05%; LiHisRS: -79.17%. O=C(CCC1CCCN(S(=O)(=O)C2CC2)C1)Nc1ccc(Cl)cc1 (stereo unspecified) gave ClpP1P2: 16.56%; LiHisRS: 9.677%. With CN(Cc1ccccn1)C1CC2(CCN(Cc3cccnc3)CC2)C1 the screen gave ClpP1P2: 4.73%; LiHisRS: 2.19%. With CC(NC(=O)c1sccc1C1CC1)c1ccc2c(c1)CC(=O)N2 (stereo unspecified) the screen gave ClpP1P2: -7.174%; LiHisRS: 8.571%. Cc1ccc2nc(CN(C)Cc3n[nH]c4c3CCCCC4)[nH]c2c1C gave ClpP1P2: -12.86%; LiHisRS: 21.43%. Cc1ccsc1CNCC1CCCN1c1cccnn1 (stereo unspecified) gave ClpP1P2: -12.73%; LiHisRS: 16.07%. Result for CCC1c2cccn2CCN1C(=O)c1ccno1 (stereo unspecified) was ClpP1P2: -17.55%; LiHisRS: 18.52%. Result for Cc1cc(C)n(-c2cncc(NCCNC(=O)C(C)C)n2)n1 was ClpP1P2: -305.9%; LiHisRS: 15.09%.

For Cc1ccc2c(n1)N(CCn1cccn1)CCN(S(C)(=O)=O)C2 the result was ClpP1P2: -4.855%; LiHisRS: 6.944%. Cc1ccccc1S(=O)(=O)NC(=O)C1(c2cccc(Cl)c2)CC1 gave ClpP1P2: -2.491%; LiHisRS: 8.571%. Result for CCC1=N[C@@]2(CC[C@@H]3CN(Cc4ccccc4C)C[C@@H]32)C(=O)N1 was ClpP1P2: -12.68%; LiHisRS: 2.564%. Result for CN1CCN(C(=O)c2ccc(=O)n(C)c2)c2ccccc21 was ClpP1P2: 8.421%; LiHisRS: 33.85%. For Cc1ccc(OCC(=O)N(C)Cc2ccc(F)cc2)cn1 the result was ClpP1P2: 14.72%; LiHisRS: 9.649%. For CN(C)S(=O)(=O)CCCN1CCc2c(ncn2C2CC2)C1 the result was ClpP1P2: 5.274%; LiHisRS: 8.85%. Cc1cc(CN(C)Cc2ncc(-c3cccs3)o2)no1 gave ClpP1P2: -16.07%; LiHisRS: 5.882%. For Cc1nn(C)c2nc(N(Cc3ccncc3)CC3CCCO3)sc12 (stereo unspecified) the result was ClpP1P2: -14.82%; LiHisRS: 12.5%.

Result for CS(=O)(=O)N1C[C@@H]2COC[C@]2(COCC(=O)N2CCCC2)C1 was ClpP1P2: -2.169%; LiHisRS: 2.727%. For CS(=O)(=O)CCC(=O)NC1CC(c2cccc(Cl)c2)C1 (stereo unspecified) the result was ClpP1P2: 8.756%; LiHisRS: 1.408%. Cc1n[nH]c(C)c1CC(=O)N1CCCN(C)C2(CCN(C)CC2)C1 gave ClpP1P2: 15.67%; LiHisRS: 8.065%. CS(=O)(=O)N1CCN(C(=O)c2cc(-c3ccco3)cs2)CC1 gave ClpP1P2: -14.76%; LiHisRS: 27.5%. CCOC(=O)CCCNc1nc(C(C)(C)C)nc2c1cnn2C gave ClpP1P2: 3.184%; LiHisRS: 4.301%. CCOc1ccc(Cl)c(C(=O)N(C)C)n1 gave ClpP1P2: 32.5%; LiHisRS: 6.383%. O=C(O)c1ccc(S(=O)(=O)Nc2ccccc2CC(F)(F)F)c(F)c1 read ClpP1P2: -0.2112%; LiHisRS: 15.38%. CN1CC2(CCN(C(=O)CCCOCc3ccccc3)C2)OC1=O (stereo unspecified) gave ClpP1P2: -2.762%; LiHisRS: 12.94%.

For Cc1noc(C(C)C)c1C(=O)NS(=O)(=O)c1ccc(Cl)cc1 the result was ClpP1P2: -2.865%; LiHisRS: 20%. O=C1Nc2ccccc2CC12CCCN2Cc1cccnc1 (stereo unspecified) gave ClpP1P2: 6.142%; LiHisRS: 13.79%. COc1c(C2CCCN2C(=O)c2cc(C3CC3)on2)c(C)nn1C (stereo unspecified) gave ClpP1P2: 5.335%; LiHisRS: 14.52%. CC(N)Cc1ccccc1Sc1ccc(O)cc1 (stereo unspecified) gave ClpP1P2: -5.532%; LiHisRS: 12.64%. With COc1c(CNCC(O)c2ccccc2)c(C(C)C)nn1C (stereo unspecified) the screen gave ClpP1P2: -40.84%; LiHisRS: 16.81%.

Data taken from ChEMBL document CHEMBL3988442, “University of Dundee, Small-Polar-MMV Screening Library” (2021).